# Reference: PMC2266781
# Amino acid sequences for entries named in this document (tags omitted).
# UniProt P09874: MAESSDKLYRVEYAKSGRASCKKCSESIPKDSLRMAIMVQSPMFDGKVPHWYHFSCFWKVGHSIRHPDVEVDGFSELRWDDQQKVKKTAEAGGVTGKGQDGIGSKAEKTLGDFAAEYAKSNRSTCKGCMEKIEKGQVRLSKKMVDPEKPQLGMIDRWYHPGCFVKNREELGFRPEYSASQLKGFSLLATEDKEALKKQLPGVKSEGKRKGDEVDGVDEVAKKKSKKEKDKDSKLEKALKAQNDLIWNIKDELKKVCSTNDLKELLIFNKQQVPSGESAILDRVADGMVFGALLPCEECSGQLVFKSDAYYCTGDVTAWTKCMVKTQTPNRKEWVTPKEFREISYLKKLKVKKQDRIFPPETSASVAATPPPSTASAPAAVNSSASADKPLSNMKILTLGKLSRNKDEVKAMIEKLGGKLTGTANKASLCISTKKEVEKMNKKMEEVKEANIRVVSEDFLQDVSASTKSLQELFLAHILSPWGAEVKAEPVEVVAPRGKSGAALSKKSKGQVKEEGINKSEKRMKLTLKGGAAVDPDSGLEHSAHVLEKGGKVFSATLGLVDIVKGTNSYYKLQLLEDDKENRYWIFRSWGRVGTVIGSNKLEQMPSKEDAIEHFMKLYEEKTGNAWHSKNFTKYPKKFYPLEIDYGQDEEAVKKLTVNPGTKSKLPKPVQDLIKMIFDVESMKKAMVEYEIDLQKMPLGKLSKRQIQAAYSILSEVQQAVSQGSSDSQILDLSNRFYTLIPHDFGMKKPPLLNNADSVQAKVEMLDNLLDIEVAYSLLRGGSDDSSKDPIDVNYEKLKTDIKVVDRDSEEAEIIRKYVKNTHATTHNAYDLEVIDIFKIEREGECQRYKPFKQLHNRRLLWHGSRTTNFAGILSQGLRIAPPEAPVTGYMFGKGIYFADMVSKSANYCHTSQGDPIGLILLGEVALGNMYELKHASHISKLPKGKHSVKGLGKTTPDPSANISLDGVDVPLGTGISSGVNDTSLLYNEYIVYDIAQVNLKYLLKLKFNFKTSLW
# Results are given in words; binding and its absence hold for the method and conditions named. Binding seen in cells or lysates may run through a third protein. Some binding calls cover weakened binding; strength is not graded here.
# Target: Poly [ADP-ribose] polymerase 1 (human (endogenous in HeLa)) (UniProt P09874)
# Assay: co-IP; endogenous PARP-1 immunoprecipitated from HeLa cell lysate with mouse monoclonal F1-23 antibody (control: normal mouse IgG); western blot with rabbit polyclonal RFC1 antibody and C2-10 antibody to PARP-1
binder,measurement,value
"Splice Isoform 1 of Activator 1 140 kDa subunit (protein, UniProt P35251 1-1148) MDIRKFFGVIPSGKKLVSETVKKNEKTKSDEETLKAKKGIKEIKVNSSRKEDDFKQKQPSKKKRIIYDSDSESEETLQVKNAKKPPEKLPVSSKPGKISRQDPVTYISETDEEDDFMCKKAASKSKENGRSTNSHLGTSNMKKNEENTKTKNKPLSPIKLTPTSVLDYFGTGSVQRSNKKMVASKRKELSQNTDESGLNDEAIAKQLQLDEDAELERQLHEDEEFARTLAMLDEEPKTKKARKDTEAGETFSSVQANLSKAEKHKYPHKVKTAQVSDERKSYSPRKQSKYESSKESQQHSKSSADKIGEVSSPKASSKLAIMKRKEESSYKEIEPVASKRKENAIKLKGETKTPKKTKSSPAKKESVSPEDSEKKRTNYQAYRSYLNREGPKALGSKEIPKGAENCLEGLIFVITGVLESIERDEAKSLIERYGGKVTGNVSKKTNYLVMGRDSGQSKSDKAAALGTKIIDEDGLLNLIRTMPGKKSKYEIAVETEMKKESKLERTPQKNVQGKRKISPSKKESESKKSRPTSKRDSLAKTIKKETDVFWKSLDFKEQVAEETSGDSKARNLADDSSENKVENLLWVDKYKPTSLKTIIGQQGDQSCANKLLRWLRNWQKSSSEDKKHAAKFGKFSGKDDGSSFKAALLSGPPGVGKTTTASLVCQELGYSYVELNASDTRSKSSLKAIVAESLNNTSIKGFYSNGAASSVSTKHALIMDEVDGMAGNEDRGGIQELIGLIKHTKIPIICMCNDRNHPKIRSLVHYCFDLRFQRPRVEQIKGAMMSIAFKEGLKIPPPAMNEIILGANQDIRQVLHNLSMWCARSKALTYDQAKADSHRAKKDIKMGPFDVARKVFAAGEETAHMSLVDKSDLFFHDYSIAPLFVQENYIHVKPVAAGGDMKKHLMLLSRAADSICDGDLVDSQIRSKQNWSLLPAQAIYASVLPGELMRGYMTQFPTFPSWLGKHSSTGKHDRIVQDLALHMSLRTYSSKRTVNMDYLSLLRDALVQPLTSQGVDGVQDVVALMDTYYLMKEDFENIMEISSWGGKPSPFSKLDPKVKAAFTRAYNKEAHLTPYSLQAIKASRHSTSPSLDSEYNEELNEDDSQSDEKDQDAIETDAMIKKKTKSSKPSKPEKDKEPRKGKGKSSKK",binding,binds
